Results reported in patent publication US20250277039A1 (PURDUE RESEARCH FOUNDATION, published 2025).
Results are given in words; binding and its absence hold for the method and conditions named. Some binding calls cover weakened binding; strength is not graded here. Tags and fused reporters may be left off the sequences shown.

Tests used:
[1] = target: T1, His-tagged canine PD-L1 protein (6X His tagged extracellular domain of cPD-L1) (canine) (UniProt E2RKZ5); assay: plate assay: His-tagged PD-L1 on Ni-NTA 96-well plate, antibody, HRP anti-canine IgG secondary, OD450
T1 sequence: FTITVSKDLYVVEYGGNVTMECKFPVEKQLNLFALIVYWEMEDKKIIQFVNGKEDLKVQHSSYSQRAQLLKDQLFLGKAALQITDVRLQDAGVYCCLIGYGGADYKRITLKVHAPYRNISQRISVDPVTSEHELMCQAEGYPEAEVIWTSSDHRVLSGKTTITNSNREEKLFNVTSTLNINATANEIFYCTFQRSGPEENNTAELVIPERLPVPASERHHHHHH

[2] = target: T2, canine PD-L1 (Flag-cPD-L1) expressed on BT549 cells (canine) (UniProt E2RKZ5); assay: summary sentence on the in vitro and in vivo validation of mAb 12C and mAb 3C
T2 sequence: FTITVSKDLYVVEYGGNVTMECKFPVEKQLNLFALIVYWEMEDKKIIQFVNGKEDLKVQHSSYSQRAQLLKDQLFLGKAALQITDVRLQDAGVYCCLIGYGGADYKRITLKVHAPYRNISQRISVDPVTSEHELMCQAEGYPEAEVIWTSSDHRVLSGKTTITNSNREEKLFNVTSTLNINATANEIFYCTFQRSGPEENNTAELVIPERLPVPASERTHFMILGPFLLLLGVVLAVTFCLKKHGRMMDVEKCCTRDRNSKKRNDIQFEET

[3] = target: T1, His-tagged canine PD-L1 protein (6X His tagged extracellular domain of cPD-L1) (canine); assay: blocking plate assay: cPD-L1-His on Ni-NTA plate; blocked ligands cPD-1-hFc and mPD-1-hFc; one 12C concentration, not given
[4] = target: T1, His-tagged canine PD-L1 protein (6X His tagged extracellular domain of cPD-L1) (canine); assay: Octet biolayer interferometry, His-tagged cPD-L1 loaded on the NTA biosensor
[5] = target: T1, His-tagged canine PD-L1 protein (6X His tagged extracellular domain of cPD-L1) (canine); assay: cell-free blockade assay: canine PD-L1-His on Ni-NTA plate; blocked ligand PD-1-Fc (cPD-1-hFc), HRP anti-human IgG Fc secondary, OD450
[6] = target: T1, His-tagged canine PD-L1 protein (6X His tagged extracellular domain of cPD-L1) (canine); assay: ELISA-based plate assay, bound antibody as OD450
[7] = target: T1, His-tagged canine PD-L1 protein (6X His tagged extracellular domain of cPD-L1) (canine); assay: cell-free ELISA-based binding assay on His-tagged extracellular domain of cPD-L1, bound antibody as OD450
[8] = target: T1, His-tagged canine PD-L1 protein (6X His tagged extracellular domain of cPD-L1) (canine); assay: ELISA-based cell-free binding assay with the 6X His tagged cPD-L1 extracellular domain (FIG. 7A)

Measured: binding

B1: cPD-L1 3C chimeric antibody clone (3C8D3 variable domains, canine constant domains) (antibody, V domains shown)
VH: EVQLQQSGPELVKPGASVKMSCKASGYTFTDYVLHWVRQTNGKSLEWIGEINPSNGDTYYNQKFKGKATLTVDTSSSTAYMQLTTLTSEDSAVYYCARSDYSNYVGFAYWGQGTLVTVSA
VL: DIVMTQSHKFMSTSVGDRVSITCKVSQDVGTAVAWYQQKPGQCPKRLIYWTSTRHTGVPDRFTGSGSGTDFTLTISNVQSEDLVDYFCQQYSSYPLTFGGGTKLELKR
notes: also called cPD-L1 3C8D3
binds: [1]

B2: murine monoclonal antibody cPD-L1 12C10E4 from the hybridoma (antibody, mouse IgG1, V domains shown)
VH: QVQLKQSGPGLVQPSQSLSITCTISGFSLTSFGVHWVRQSPGKGLEWLGVIWSGGSTDYNAAFTSRLSINKDNSKSQVFFKMNSLQADDTAIYYCARGGGPDWYFDVWGTGTTVTVSS
VL: DIVLTQSPASLAVSLGQRATISCRASESVEYYGTSLMQWYQQKPGQPPKLLIFAASNVKSGVPARFSGSGSGTDFSLNIHPVEEDDIAMYFCQQSGKVPHTFGGGTKLEIK
notes: Hybridoma antibody from A/J mice immunized with the cPD-L1 extracellular domain-human Fc; also called mAb 12C; murine 12C antibody
binds: [2] | [3]

B3: cPD-L1 12C10E4 chimeric antibody (mouse variable domains, canine IgG2 / canine kappa constant domains) (antibody)
heavy: QVQLKQSGPGLVQPSQSLSITCTISGFSLTSFGVHWVRQSPGKGLEWLGVIWSGGSTDYNAAFTSRLSINKDNSKSQVFFKMNSLQADDTAIYYCARGGGPDWYFDVWGTGTTVTVSSASTTAPSVFPLAPSCGSTSGSTVALACLVSGYFPEPVTVSWNSGSLTSGVHTFPSVLQSSGLYSLSSMVTVPSSRWPSETFTCNVAHPASKTKVDKPVPKRENGRVPRPPDCPKCPAPEMLGGPSVFIFPPKPKDTLLIARTPEVTCVVVDLDPEDPEVQISWFVDGKQMQTAKTQPREEQFNGTYRVVSVLPIGHQDWLKGKQFTCKVNNKALPSPIERTISKARGQAHQPSVYVLPPSREELSKNTVSLTCLIKDFFPPDIDVEWQSNGQQEPESKYRTTPPQLDEDGSYFLYSKLSVDKSRWQRGDTFICAVMHEALHNHYTQKSLSHSPGK
light: DIVLTQSPASLAVSLGQRATISCRASESVEYYGTSLMQWYQQKPGQPPKLLIFAASNVKSGVPARFSGSGSGTDFSLNIHPVEEDDIAMYFCQQSGKVPHTFGGGTKLEIKRSMEIKRTDAQPAVYLFQPSPDQLHTGSASVVCLLNSFYPKDINVKWKVDGVIQDTGIQESVTEQDKDSTYSLSSTLTMSSTEYLSHELYSCEITHKSLPSTLIKSFQRSECQRVD
notes: Expressed in ExpiCHO-S cells from pTRIOZ-cIgG2-12C10E4; also called 12C chimeric antibody; mAb 12C
binds: [4] | [5] | [6] | [1] | [7] | [8]

B4: cPD-L1 A12C10E4 chimeric antibody (antibody)
heavy: B3 heavy
light: DIVLTQSPASLAVSLGQRATISCRASESVEYYGTSLMQWYQQKPGQPPKLLIFAASNVKSGVPARFSGSGSGTDFSLNIHPVEEDDIAMYFCQQSGKVPHTFGGGTKLEIKRSMADAQPAVYLFQPSPDQLHTGSASVVCLLNSFYPKDINVKWKVDGVIQDTGIQESVTEQDKDSTYSLSSTLTMSSTEYLSHELYSCEITHKSLPSTLIKSFQRSECQRVD
notes: also called mAb A12C; cPD-L1 A12C10E4 cIgG
binds: [5] | [7] | [8]
